Laboratory results taken from US9517222B2, “Method for the treatment of senile dementia of the Alzheimer's type” (Phenomenome Discoveries Inc., priority 2007, dated 2016).
A unit is not stated for every read-out.

Assays:
[1] = Serum ethanolamine phospholipid levels in human cohorts (dementia severity, post-mortem pathology, age) by flow-injection MS/MS
[2] = Serum ethanolamine phospholipid ratios to PtdEt 16:0/18:0 (M01) in human cohorts
[3] = serum, females, post mortem SDAT
[4] = serum, females, post mortem control

## CCCCC/C=C\C/C=C\C/C=C\C/C=C\CCCC(=O)OC(COCCCCCCCCCCCCCCCCCC)COP(=O)(O)OCCN (centres unmarked) [Metabolite M12, Plasmanyl 18:0/20:4]
[1]; AD, All to CN, Male
  Ratio of serum levels: 0.793
[1]; ADAS 5-19 to CN, Male
  Ratio of serum levels: 0.831
[1]; ADAS 20-39 to 5-19, Male
  Ratio of serum levels: 0.942
[1]; ADAS 20-39 to CN, Male
  Ratio of serum levels: 0.783
[1]; ADAS 40-70 to 5-19, Male
  Ratio of serum levels: 0.826
[1]; ADAS 40-70 to 20-39, Male
  Ratio of serum levels: 0.877
[1]; ADAS 40-70 to CN, Male
  Ratio of serum levels: 0.686
[1]; Cognitive Normal, Female
  Serum level, Mean: 0.196
[1]; Cognitive Normal, Male
  Average serum level, Mean: 0.205
[1]; Post Mortem Ctl, Male
  Serum level, Mean: 0.094
[1]; Post Mortem SDAT Male
  Serum level, Mean: 0.084
[1]; Post mortem SDAT vs Control, Male
  Ratio of serum levels: 0.587
[1]; SDAT, ADAS 5-19, Female
  Serum level, Mean: 0.166
[1]; SDAT, ADAS 5-19, Male
  Average serum level, Mean: 0.170
[1]; SDAT, ADAS 20-39, Female
  Serum level, Mean: 0.152
[1]; SDAT, ADAS 20-39, Male
  Average serum level, Mean: 0.160
[1]; SDAT, ADAS 40-70, Female
  Serum level, Mean: 0.142
[1]; SDAT, ADAS 40-70, Male
  Average serum level, Mean: 0.141
[1]; SDAT_all, Female
  Serum level, Mean: 0.153
[1]; SDAT_all, Male
  Average serum level, Mean: 0.162
[1]; serum level ratio, females, ADAS 5-19 vs CN
  Ratio, ADAS 5-19 to CN, Female: 0.847
[1]; serum level ratio, females, ADAS 20-39 vs ADAS 5-19
  Ratio, ADAS 20-39 to 5-19, Female: 0.917
[1]; serum level ratio, females, ADAS 20-39 vs CN
  Ratio, ADAS 20-39 to CN, Female: 0.776
[1]; serum level ratio, females, ADAS 40-70 vs ADAS 5-19
  Ratio, ADAS 40-70 to 5-19, Female: 0.858
[1]; serum level ratio, females, ADAS 40-70 vs ADAS 20-39
  Ratio, ADAS 40-70 to 20-39, Female: 0.935
[1]; serum level ratio, females, ADAS 40-70 vs CN
  Ratio, ADAS 40-70 to CN, Female: 0.726
[1]; serum level ratio, females, age 50-59 vs 40-49
  Ratio, 50-59 vs. 40-49, Female: 0.862
[1]; serum level ratio, females, age 60-69 vs 40-49
  Ratio, 60-69 vs. 40-49, Female: 0.815
[1]; serum level ratio, females, age 70+ vs 40-49
  Ratio, 70+ vs. 40-49, Female: 0.848
[1]; serum level ratio, females, all AD vs cognitively normal
  Ratio, AD, All to CN, Female: 0.778
[1]; serum level ratio, females, autopsy AD vs control
  Ratio, Autopsy AD vs. Control, Female: 0.742
[1]; serum level ratio, males, age 50-59 vs 40-49
  Ratio, 50-59 vs. 40-49, Male: 1.128
[1]; serum level ratio, males, age 60-69 vs 40-49
  Ratio, 60-69 vs. 40-49, Male: 1.147
[1]; serum level ratio, males, age 70+ vs 40-49
  Ratio, 70+ vs. 40-49, Male: 1.085
[1]; serum, females, age 30-39
  Mean serum level, Age Ctl, 30-39, Female: 0.196
[1]; serum, females, age 40-49
  Mean serum level, Age Ctl, 40-49, Female: 0.222
[1]; serum, females, age 50-59
  Mean serum level, Age Ctl, 50-59, Female: 0.191
[1]; serum, females, age 60-69
  Mean serum level, Age Ctl, 60-69, Female: 0.181
[1]; serum, females, age 70+
  Mean serum level, Age Ctl, 70+, Female: 0.188
[1]; [3]
  Mean serum level, Post Mortem SDAT, Female: 0.055
[1]; [4]
  Mean serum level, Post Mortem Ctl, Female: 0.114
[1]; serum, males, age 30-39
  Mean serum level, Age Ctl, 30-39, Male: 0.244
[1]; serum, males, age 40-49
  Mean serum level, Age Ctl, 40-49, Male: 0.186
[1]; serum, males, age 50-59
  Mean serum level, Age Ctl, 50-59, Male: 0.210
[1]; serum, males, age 60-69
  Mean serum level, Age Ctl, 60-69, Male: 0.213
[1]; serum, males, age 70+
  Mean serum level, Age Ctl, 70+, Male: 0.202
[2]; AD, All to CN, Male
  Ratio of ethanolamine phospholipid ratios to M01 between cohorts: 0.759
[2]; ADAS 5-19 to CN, Male
  Ratio of ethanolamine phospholipid ratios to M01 between cohorts: 0.792
[2]; ADAS 20-39 to CN, Male
  Ratio of ethanolamine phospholipid ratios to M01 between cohorts: 0.763
[2]; ADAS 40-70 to CN, Male
  Ratio of ethanolamine phospholipid ratios to M01 between cohorts: 0.679
[2]; Cognitive Normal, Male, serum
  Average serum ethanolamine phospholipid ratio to M01, Mean: 1.843
[2]; SDAT, ADAS 5-19, Male, serum
  Average serum ethanolamine phospholipid ratio to M01, Mean: 1.460
[2]; SDAT, ADAS 20-39, Male, serum
  Average serum ethanolamine phospholipid ratio to M01, Mean: 1.406
[2]; SDAT, ADAS 40-70, Male, serum
  Average serum ethanolamine phospholipid ratio to M01, Mean: 1.252
[2]; SDAT_all, Male, serum
  Average serum ethanolamine phospholipid ratio to M01, Mean: 1.399
[2]; human serum, females aged 30-39
  Ethanolamine Phospholipid Ratio to M01, Mean, Age Ctl, 30-39, Female: 1.979
[2]; human serum, females aged 40-49
  Ethanolamine Phospholipid Ratio to M01, Mean, Age Ctl, 40-49, Female: 2.044
[2]; human serum, females aged 50-59
  Ethanolamine Phospholipid Ratio to M01, Mean, Age Ctl, 50-59, Female: 1.952
[2]; human serum, females aged 50-59 vs. females aged 40-49
  Ratio of Ethanolamine Phospholipid Ratio to M01, 50-59 vs. 40-49, Female: 0.955
[2]; human serum, females aged 60-69
  Ethanolamine Phospholipid Ratio to M01, Mean, Age Ctl, 60-69, Female: 1.534
[2]; human serum, females aged 60-69 vs. females aged 40-49
  Ratio of Ethanolamine Phospholipid Ratio to M01, 60-69 vs. 40-49, Female: 0.751
[2]; human serum, females aged 70+
  Ethanolamine Phospholipid Ratio to M01, Mean, Age Ctl, 70+_Female: 1.564
[2]; human serum, females aged 70+ vs. females aged 40-49
  Ratio of Ethanolamine Phospholipid Ratio to M01, 70+ vs. 40-49, Female: 0.765
[2]; human serum, males aged 50-59 vs. males aged 40-49
  Ratio of Ethanolamine Phospholipid Ratio to M01, 50-59 vs. 40-49, Male: 1.124
[2]; human serum, males aged 60-69 vs. males aged 40-49
  Ratio of Ethanolamine Phospholipid Ratio to M01, 60-69 vs. 40-49, Male: 0.963
[2]; human serum, males aged 70+ vs. males aged 40-49
  Ratio of Ethanolamine Phospholipid Ratio to M01, 70+ vs. 40-49, Male: 0.898
[2]; serum, females, ADAS 5-19 vs cognitive normal
  Ratio of ethanolamine phospholipid ratio to M01, ADAS 5-19 to CN, Female: 0.932
[2]; serum, females, ADAS 20-39 vs ADAS 5-19
  Ratio of ethanolamine phospholipid ratio to M01, ADAS 20-39 to 5-19, Female: 0.883
[2]; serum, females, ADAS 20-39 vs cognitive normal
  Ratio of ethanolamine phospholipid ratio to M01, ADAS 20-39 to CN, Female: 0.823
[2]; serum, females, ADAS 40-70 vs ADAS 5-19
  Ratio of ethanolamine phospholipid ratio to M01, ADAS 40-70 to 5-19, Female: 0.790
[2]; serum, females, ADAS 40-70 vs ADAS 20-39
  Ratio of ethanolamine phospholipid ratio to M01, ADAS 40-70 to 20-39, Female: 0.895
[2]; serum, females, ADAS 40-70 vs cognitive normal
  Ratio of ethanolamine phospholipid ratio to M01, ADAS 40-70 to CN, Female: 0.736
[2]; serum, females, SDAT ADAS 5-19
  Ethanolamine phospholipid ratio to M01, Mean, SDAT, ADAS 5-19, Female: 1.568
[2]; serum, females, SDAT ADAS 20-39
  Ethanolamine phospholipid ratio to M01, Mean, SDAT, ADAS 20-39, Female: 1.384
[2]; serum, females, SDAT ADAS 40-70
  Ethanolamine phospholipid ratio to M01, Mean, SDAT, ADAS 40-70, Female: 1.239
[2]; serum, females, all AD vs cognitive normal
  Ratio of ethanolamine phospholipid ratio to M01, AD, All to CN, Female: 0.823
[2]; serum, females, all SDAT
  Ethanolamine phospholipid ratio to M01, Mean, SDAT_all Female: 1.384
[2]; serum, females, autopsy AD vs post mortem control
  Ratio of ethanolamine phospholipid ratio to M01, Autopsy AD vs. Control, Female: 0.957
[2]; serum, females, cognitive normal
  Ethanolamine phospholipid ratio to M01, Mean, Cognitive Normal, Female: 1.682
[2]; [3]
  Ethanolamine phospholipid ratio to M01, Mean, Post Mortem SDAT Female: 0.699
[2]; [4]
  Ethanolamine phospholipid ratio to M01, Mean, Post Mortem Ctl, Female: 0.731
[2]; serum, males, SDAT ADAS 20-39 vs ADAS 5-19
  Ratio of ethanolamine phospholipid ratio to M01, ADAS 20-39 to 5-19, Male: 0.964
[2]; serum, males, SDAT ADAS 40-70 vs ADAS 5-19
  Ratio of ethanolamine phospholipid ratio to M01, ADAS 40-70 to 5-19, Male: 0.858
[2]; serum, males, SDAT ADAS 40-70 vs ADAS 20-39
  Ratio of ethanolamine phospholipid ratio to M01, ADAS 40-70 to 20-39, Male: 0.890
[2]; serum, males, age control 30-39
  Ethanolamine phospholipid ratio to M01, Mean, Age Ctl, 30-39, Male: 2.068
[2]; serum, males, age control 40-49
  Ethanolamine phospholipid ratio to M01, Mean, Age Ctl, 40-49, Male: 1.728
[2]; serum, males, age control 50-59
  Ethanolamine phospholipid ratio to M01, Mean, Age Ctl, 50-59, Male: 1.942
[2]; serum, males, age control 60-69
  Ethanolamine phospholipid ratio to M01, Mean, Age Ctl, 60-69, Male: 1.664
[2]; serum, males, age control 70+
  Ethanolamine phospholipid ratio to M01, Mean, Age Ctl, 70+_Male: 1.552
[2]; serum, males, post mortem SDAT
  Ethanolamine phospholipid ratio to M01, Mean, Post Mortem SDAT Male: 0.616
[2]; serum, males, post mortem SDAT vs post mortem control
  Ratio of ethanolamine phospholipid ratio to M01, SDAT vs Control (post mortem, males): 0.753
[2]; serum, males, post mortem control
  Ethanolamine phospholipid ratio to M01, Mean, Post Mortem Ctl, Male: 0.819
